Data: paper PMC4203132
Results are given in words; binding and its absence hold for the method and conditions named. Binding calls can cover weak binding; strength is not graded here.

Amino acid sequences for entries named in this document (tags omitted). A change or cut given only in a name is not applied to a line headed by its entry.
UniProt Q8LBL1: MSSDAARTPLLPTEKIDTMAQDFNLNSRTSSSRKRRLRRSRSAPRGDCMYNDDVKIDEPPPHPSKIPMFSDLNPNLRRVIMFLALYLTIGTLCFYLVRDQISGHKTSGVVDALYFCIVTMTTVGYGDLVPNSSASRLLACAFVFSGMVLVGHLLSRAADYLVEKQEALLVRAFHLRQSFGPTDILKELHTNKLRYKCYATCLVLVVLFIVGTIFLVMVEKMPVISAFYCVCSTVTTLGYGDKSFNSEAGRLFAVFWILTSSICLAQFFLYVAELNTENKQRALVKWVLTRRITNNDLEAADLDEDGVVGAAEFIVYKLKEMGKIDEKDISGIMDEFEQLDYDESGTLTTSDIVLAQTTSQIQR

Tests used:
[1] = molecular target: N-terminus of the vacuolar ion channel TPK1 (UniProt Q8LBL1); assay: two-hybrid; yeast two-hybrid of wild-type and truncated 14-3-3s with known interactors; bait and prey not told
[2] = molecular target: barley H+-ATPase (barley); assay: as above

Binder	binding [1]	binding [2]
14-3-3 KAPPA (wild type) (protein, UniProt P48348 1-248) MATTLSRDQYVYMAKLAEQAERYEEMVQFMEQLVSGATPAGELTVEERNLLSVAYKNVIGSLRAAWRIVSSIEQKEESRKNEEHVSLVKDYRSKVETELSSICSGILRLLDSHLIPSATASESKVFYLKMKGDYHRYLAEFKSGDERKTAAEDTMIAYKAAQDVAVADLAPTHPIRLGLALNFSVFYYEILNSSEKACSMAKQAFEEAIAELDTLGEESYKDSTLIMQLLRDNLTLWTSDMQEQMDEA	binds	–
14-3-3 LAMBDA (wild type) (protein, UniProt P48349 1-248) MAATLGRDQYVYMAKLAEQAERYEEMVQFMEQLVTGATPAEELTVEERNLLSVAYKNVIGSLRAAWRIVSSIEQKEESRKNDEHVSLVKDYRSKVESELSSVCSGILKLLDSHLIPSAGASESKVFYLKMKGDYHRYMAEFKSGDERKTAAEDTMLAYKAAQDIAAADMAPTHPIRLGLALNFSVFYYEILNSSDKACNMAKQAFEEAIAELDTLGEESYKDSTLIMQLLRDNLTLWTSDMQEQMDEA	binds	–
14-3-3 PHI (wild type) (protein, UniProt P46077 1-267) MAAPPASSSAREEFVYLAKLAEQAERYEEMVEFMEKVAEAVDKDELTVEERNLLSVAYKNVIGARRASWRIISSIEQKEESRGNDDHVTTIRDYRSKIESELSKICDGILKLLDTRLVPASANGDSKVFYLKMKGDYHRYLAEFKTGQERKDAAEHTLTAYKAAQDIANAELAPTHPIRLGLALNFSVFYYEILNSPDRACNLAKQAFDEAIAELDTLGEESYKDSTLIMQLLRDNLTLWTSDMQDESPEEIKEAAAPKPAEEQKEI	–	binds
